# For at least one compound, name, drawing or mass did not settle the structure.
# Test system: lumbar motoneurons of chick embryos
# Test: Inhibition of Motoneuron Death In Ovo
# Assay type: in vivo
# Conditions: 0.06 ug/egg daily, E6-E9
structure (smiles),measurement,value
"O=C1NCc2c1c1c(c3[nH]c4ccc(C=Cc5ccccn5)cc4c23)Cc2ccccc2-1 [Compound I-32, 3-(2-Pyridinylethenyl)-5H,6H,12H,13H-indeno[2,3-a]pyrrolo[3,4-c]carbazole-7(7H)-one]",% of motoneurons rescued versus control,not significant

# Source: patent US5594009A, “Fused pyrrolocarbazoles” (priority 1995, dated 1997)
